In paper PMC12499447, “API5 Phosphorylation Promotes Antiviral Immunity by Inhibiting Degradation of Cytosolic RNA Sensor RLRs” (Advanced Science, 2025):
These are yes or no findings as the source states them, for the method shown. Binding seen in cells or lysates may run through a third protein. Here binding means that the protein was enriched with, or labelled near, the bait; the list need not be complete. Sequences can lack the tags named with a protein.

Sequences of proteins named here, by UniProt entry; tags and fusion partners are left off.
UniProt Q96SB4: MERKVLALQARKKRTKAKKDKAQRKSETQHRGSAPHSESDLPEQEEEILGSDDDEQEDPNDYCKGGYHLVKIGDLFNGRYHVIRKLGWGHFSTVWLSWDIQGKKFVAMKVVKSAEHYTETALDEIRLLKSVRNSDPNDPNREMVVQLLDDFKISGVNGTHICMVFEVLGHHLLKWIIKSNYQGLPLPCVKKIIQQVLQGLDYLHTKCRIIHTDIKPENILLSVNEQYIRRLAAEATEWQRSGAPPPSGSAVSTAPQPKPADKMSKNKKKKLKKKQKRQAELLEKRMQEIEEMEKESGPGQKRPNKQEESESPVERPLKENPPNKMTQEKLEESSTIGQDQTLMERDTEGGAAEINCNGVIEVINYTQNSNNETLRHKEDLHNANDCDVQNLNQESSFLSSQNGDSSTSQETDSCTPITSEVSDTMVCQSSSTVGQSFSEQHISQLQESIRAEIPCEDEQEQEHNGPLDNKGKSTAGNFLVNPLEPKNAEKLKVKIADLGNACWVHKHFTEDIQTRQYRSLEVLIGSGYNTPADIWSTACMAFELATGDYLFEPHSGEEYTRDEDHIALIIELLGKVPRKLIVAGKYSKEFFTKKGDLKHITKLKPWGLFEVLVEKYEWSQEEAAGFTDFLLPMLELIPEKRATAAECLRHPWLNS

Target: T1, Flag-API5 (human) (UniProt Q9BZZ5)
T1 sequence: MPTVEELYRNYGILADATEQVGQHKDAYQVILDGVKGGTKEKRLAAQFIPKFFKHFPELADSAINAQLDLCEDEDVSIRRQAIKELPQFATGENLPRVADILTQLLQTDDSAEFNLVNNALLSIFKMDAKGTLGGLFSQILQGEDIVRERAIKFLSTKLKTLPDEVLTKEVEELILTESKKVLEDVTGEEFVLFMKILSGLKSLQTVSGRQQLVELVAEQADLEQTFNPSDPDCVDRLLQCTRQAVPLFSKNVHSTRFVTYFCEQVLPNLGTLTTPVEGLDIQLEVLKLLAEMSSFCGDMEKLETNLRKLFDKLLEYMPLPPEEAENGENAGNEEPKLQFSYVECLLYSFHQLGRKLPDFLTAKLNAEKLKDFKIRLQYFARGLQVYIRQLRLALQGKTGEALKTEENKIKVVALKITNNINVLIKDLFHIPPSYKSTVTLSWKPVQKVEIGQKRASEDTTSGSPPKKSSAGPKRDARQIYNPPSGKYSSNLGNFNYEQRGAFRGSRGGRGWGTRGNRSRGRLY
Assay: affinity purification with mass spectrometry

binding: binds
Substance: Serine/arginine-rich protein kinase 1 (SRPK1), endogenous (from UniProt Q96SB4 1-655) (enzyme)
